Measurements taken from paper PMC4383067.
Results are given in words; binding and its absence hold for the method and conditions named. Some binding calls cover weakened binding; strength is not graded here.

Sequences of proteins named here, by UniProt entry; tags and fusion partners are left off. Residues count along the entry.
UniProt P22303, 32-614: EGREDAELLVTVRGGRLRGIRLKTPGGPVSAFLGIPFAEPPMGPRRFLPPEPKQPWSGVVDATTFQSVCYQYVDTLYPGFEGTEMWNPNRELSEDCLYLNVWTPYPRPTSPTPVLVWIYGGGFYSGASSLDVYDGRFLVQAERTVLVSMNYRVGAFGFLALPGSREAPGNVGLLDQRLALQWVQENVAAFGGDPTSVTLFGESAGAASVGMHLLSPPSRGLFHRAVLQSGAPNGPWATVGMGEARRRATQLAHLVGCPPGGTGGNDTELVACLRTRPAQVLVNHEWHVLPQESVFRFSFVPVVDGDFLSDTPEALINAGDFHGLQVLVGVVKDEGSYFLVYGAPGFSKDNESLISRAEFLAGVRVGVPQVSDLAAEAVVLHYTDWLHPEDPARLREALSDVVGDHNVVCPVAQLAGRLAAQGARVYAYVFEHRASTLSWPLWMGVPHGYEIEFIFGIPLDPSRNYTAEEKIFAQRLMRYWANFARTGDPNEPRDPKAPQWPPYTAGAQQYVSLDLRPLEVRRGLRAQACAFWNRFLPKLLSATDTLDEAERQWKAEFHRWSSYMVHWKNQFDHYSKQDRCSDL

Target: Full-length human PrP (monomeric, recombinant) (human) (UniProt P04156)
Assay: static light scattering kinetics; both purified

Full-length human acetylcholinesterase (dimeric, recombinant) (from UniProt P22303 32-614) (enzyme)
binding: binds
